What was measured:
[1] = biological target: SARS-CoV-2 main protease (Mpro) (Severe acute respiratory syndrome coronavirus 2, UniProt P0DTD1); assay: biochemical
[2] = system: SARS-CoV-2 in Vero E6 cells; format: cell-based
[3] = system: SARS-CoV-2 in A549/ACE2 cells; format: cell-based

Row | SMILES | Hill slope [1] | IC50 [1] | SARS-CoV-2 induced CPE at all tested concentrations [2] | SARS-CoV-2 induced CPE at all tested concentrations [3]
1 | Clc1ccc(CO/N=C(\Cn2ccnc2)c2ccc(Cl)cc2Cl)c(Cl)c1 [Oxiconazole] | 3.8 ± 0.4 | 99 ± 6 µM |  | 
2 | CC(C)(C)c1ccc(C(=O)CCCN2CCC(OC(c3ccccc3)c3ccccc3)CC2)cc1 [Ebastine] | 1.5 ± 0.2 | 57 ± 12 µM | CPE was clearly observable | CPE was clearly observable

Source: paper PMC7958448, “Bepridil is potent against SARS-CoV-2 in vitro” (Proceedings of the National Academy of Sciences of the …, 2021)
